Experiment [1] concerns the target T1, murine integrin β8 (on primary murine astrocytes) (mouse) (UniProt Q0VBD0).
T1 sequence (looked up): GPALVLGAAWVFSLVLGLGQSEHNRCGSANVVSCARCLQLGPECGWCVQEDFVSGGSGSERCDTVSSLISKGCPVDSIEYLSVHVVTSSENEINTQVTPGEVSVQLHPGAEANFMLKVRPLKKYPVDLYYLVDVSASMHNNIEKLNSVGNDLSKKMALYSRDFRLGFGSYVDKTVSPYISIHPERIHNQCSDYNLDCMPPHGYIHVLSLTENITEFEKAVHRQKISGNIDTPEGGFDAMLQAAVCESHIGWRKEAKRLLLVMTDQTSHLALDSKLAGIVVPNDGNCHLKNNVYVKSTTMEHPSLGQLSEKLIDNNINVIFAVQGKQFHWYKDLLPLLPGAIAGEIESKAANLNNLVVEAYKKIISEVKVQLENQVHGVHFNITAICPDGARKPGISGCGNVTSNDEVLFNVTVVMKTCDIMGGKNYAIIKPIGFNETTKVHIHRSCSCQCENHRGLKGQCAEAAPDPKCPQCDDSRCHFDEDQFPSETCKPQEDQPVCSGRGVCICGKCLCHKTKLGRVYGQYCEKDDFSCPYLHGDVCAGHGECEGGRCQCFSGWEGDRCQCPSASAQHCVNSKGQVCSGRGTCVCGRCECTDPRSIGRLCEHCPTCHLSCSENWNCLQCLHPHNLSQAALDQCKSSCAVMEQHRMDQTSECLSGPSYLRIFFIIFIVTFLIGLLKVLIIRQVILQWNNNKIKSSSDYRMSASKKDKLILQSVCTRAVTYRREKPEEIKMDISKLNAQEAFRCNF
The experiment can be described thus: flow cytometry on murine astrocytes. (Flow cytometry measures light scatter and fluorescence of single cells or particles in a stream.)

For experiment [2], the target named is T1, murine integrin β8 (on primary murine astrocytes) (mouse). The experiment can be described thus: flow cytometry on primary murine astrocytes (FIG. 1).

No constants are given. Whether binding was seen depends on the method and setting. Some results given as binding are weak or reduced against the parent protein; the word gives no strength.

B1: ADWA-8 (antibody, V domains shown)
VH: QVQLQQPGSELVRPGASVKLSCKASGYTFTSYWMHWVKQRPGQGLEWIGNIYPGSGRTNYDEKFKSKATLTVDTSSSTAYMQLSSLTSEDSAVYYCTRPLQYRYDVYPMDYWGQGTSVTVSS
VL: DIQMTQSPASLSASVGETVTITCRASENIDSYLAWYQQKQGKSPQLLVYAATLLPDGVPSRFSGSGSGTQYSLKINSLQSEDVARYYCQHYYNTPWTFGGGTKLEIK
For the molecule B1, the binding entry in experiment [1] and in experiment [2] was “binds” throughout.

B2: ADWA-25 (antibody, V domains shown)
VH: EVQLVESGGDLVKPGGSLKLSCAASGFTFSSYGMSWVRQTPDKRLEWVATISGGGSYTYYPDSVKGRFTISRHNAKNTLYLQMSSLKSEDTAMYYCASDPYYYGRRDLAWIAYWGQGTLVTVSA
VL: DIVMTQSQKFMSTSVGDRVSVTCKASQNVGTNVAWYQQKPGQSPKALIYSASYRYSGVPDRFTGSGSGTDFTLTISNVQSEDLAEYFCQQYNSYPYTFGGGTKLEIK
With B2, the binding entry in experiment [1] and in experiment [2] was “binds” in each case.

B3: ADWA-11 (antibody, V domains shown)
VH: EVQLQQSGAELVRPGAFVKLSCKASGFNIKDYYMNWVLQRPEQGLEWIGWIDPDNGNTIYDPKFQGKASITADTSSNTAYLQLSSLTSEDTAVYYCARRLLMDYWGQGTSVTVSS
VL: DIVMTQAAPSVPVTPGESVSISCRSTKSLLHFNGNTYLFWFLQRPGQSPQRLIYYMSNLASGVPDRFSGRGSGTDFTLRISRVEAEDVGVYYCMQSLEYPFTFGTGTKLEIK
With B3, the binding result in experiment [1] and in experiment [2] was “binds” in each case.

B4: ADWA-20 (antibody, V domains shown)
VH: DVQLQESGPGLVKPSQSLSLTCTVTGYSITSDFAWSWIRQFPGNKLEWMGYISYSGSTGYNPSLKSRISITRDTSKNQFFLQLNSVTTEDTATYYCTRRGLYHWGFPYWGQGTLVTVSA
VL: DIVMTQSHKFMSTSVGDRVSITCKASQDVSSAVAWYQQKPGQSPKLLIYWASTRHTGVPDRFTGSGSGTDYTLTVSNVQAEDLALYYCQQHYITPYTFGGGTKLEIK
For the molecule B4, the binding entry in experiment [1] and in experiment [2] was “binds” throughout.

B5: ADWA-10 (antibody, V domains shown)
VH: EVLLQQSGPELVKPGASVKIPCKASGYTFTNYNMDWVKQSHGKSLEWIGDINPNSGGSVYNQKFKGKATLTVDKSSSTAYMELRSLTSEDTAVYYCARWAYYGERFHYFDYWGQGTTLTVSS
VL: QIVLSQSPAILSASPGEKVTMTCRASSSVSYMHWYQQKSGSSPKPWIYATSNLASGVPARFSGSGSGTSYSLTISRVEAEDAATYYCQQWSSNPPTFGGGTKLEIK
With B5, the binding result in experiment [1] and in experiment [2] was “binds” in each case.

B6: ADWA-2 (antibody, V domains shown)
VH: QVQLQQSGAELAKPGASMKMSCKASGYTFSSYWIYWVKQRPGQGLEWIGYINPTTGYTEYNQKFRDKATLTADKSSNTAYMQLSSLTSEDSAVYYCATEGGNWEDYWGQGTTLTVSS
VL: DIQMTQTTSSLSASLGDRVTISCRASQDISNYLNWYQQKPDGTVKLLIYYTSRLYSGVPSRFSGSGSGTDYSLTISNLEPKDIATYYCQQFSELPRTFGGGTKLEIK
Regarding B6, the binding result in experiment [1] and in experiment [2] was “binds” each time.

B7: ADWA-15 (antibody, V domains shown)
VH: QVQLQQPGSVLVRPGASVKLSCKASGYTFTSSWMHWAKQRPGQGLEWIGEIHPNSGNSIYNEKFKDKATLTVDTSSSTAYVDLSSLTSEDSAVYYCARWGDFDYWGQGTTLTVSS
VL: DVQMTQTTSSLSASLGDRVTISCRASQDISNYLNWYQQKPDGTVKLLIYYTSRLHSGVPSRFSGSGSGTDFSLTISNLEPEDIATYYCQQYNKVPLTFGGGTKLELK
B7: the binding entry in experiment [1] and in experiment [2] was “binds” each time.

B8: ADWA-13 (antibody, V domains shown)
VH: QVQLQQSGAELAKPGASVKMSCKASGYTFSSYWIYWVKQRPGQVLEWIGYINPTTGYTDYNQKFKDKATLTADKSSSTAYMQLSSLTSEDSAVYYCATEGGNWEDYWGQGTTLTVSS
VL: DIQMTQTTSSLSASLGDRVTISCRASQDISNYLNWYQQKPDGTVKLLIYYTSRLYSGVPSRFSGSGSGTDYSLTISNLEPKDIATYYCQQFSELPRTFGGGTKLEIK
For B8, the binding result in experiment [1] and in experiment [2] was “binds” throughout.

B9: ADWA-16 (antibody, V domains shown)
VH: QVQLQQSGAELAKPGASMKMSCKASGYTFSSYWIYWVKQRPGQGLEWIGYINPTTGYTEYNQKFRDKATLTADKSSNTAYMQLSSLTSEDSAVYYCATEGGNWEDYWGQGTTLTVSS
VL: DIQMTQTTSSLSASLGDRVTISCRASQDISNYLNWYQQKPDGTVKLLIYYTSRLYSGVPSRFSGSGSGTDYSLTISNLEPKDIATYYCQQFSELPRTFGGGTKLEIK
B9: the binding result in experiment [1] and in experiment [2] was “binds” in each case.

The values are drawn from patent US20200247891A1 (University of California, published 2020).
